We go through 2 molecules from doi:10.1101/679936.

Results are given in words; binding and its absence hold for the method and conditions named. Binding seen in cells or lysates may run through a third protein. Some entries that bind do so weakly or less than the wild type.

What all share (test): split reporter
For one assay, the target named is T1, Vn-SCAP (hamster) (UniProt P97260).
T1 sequence: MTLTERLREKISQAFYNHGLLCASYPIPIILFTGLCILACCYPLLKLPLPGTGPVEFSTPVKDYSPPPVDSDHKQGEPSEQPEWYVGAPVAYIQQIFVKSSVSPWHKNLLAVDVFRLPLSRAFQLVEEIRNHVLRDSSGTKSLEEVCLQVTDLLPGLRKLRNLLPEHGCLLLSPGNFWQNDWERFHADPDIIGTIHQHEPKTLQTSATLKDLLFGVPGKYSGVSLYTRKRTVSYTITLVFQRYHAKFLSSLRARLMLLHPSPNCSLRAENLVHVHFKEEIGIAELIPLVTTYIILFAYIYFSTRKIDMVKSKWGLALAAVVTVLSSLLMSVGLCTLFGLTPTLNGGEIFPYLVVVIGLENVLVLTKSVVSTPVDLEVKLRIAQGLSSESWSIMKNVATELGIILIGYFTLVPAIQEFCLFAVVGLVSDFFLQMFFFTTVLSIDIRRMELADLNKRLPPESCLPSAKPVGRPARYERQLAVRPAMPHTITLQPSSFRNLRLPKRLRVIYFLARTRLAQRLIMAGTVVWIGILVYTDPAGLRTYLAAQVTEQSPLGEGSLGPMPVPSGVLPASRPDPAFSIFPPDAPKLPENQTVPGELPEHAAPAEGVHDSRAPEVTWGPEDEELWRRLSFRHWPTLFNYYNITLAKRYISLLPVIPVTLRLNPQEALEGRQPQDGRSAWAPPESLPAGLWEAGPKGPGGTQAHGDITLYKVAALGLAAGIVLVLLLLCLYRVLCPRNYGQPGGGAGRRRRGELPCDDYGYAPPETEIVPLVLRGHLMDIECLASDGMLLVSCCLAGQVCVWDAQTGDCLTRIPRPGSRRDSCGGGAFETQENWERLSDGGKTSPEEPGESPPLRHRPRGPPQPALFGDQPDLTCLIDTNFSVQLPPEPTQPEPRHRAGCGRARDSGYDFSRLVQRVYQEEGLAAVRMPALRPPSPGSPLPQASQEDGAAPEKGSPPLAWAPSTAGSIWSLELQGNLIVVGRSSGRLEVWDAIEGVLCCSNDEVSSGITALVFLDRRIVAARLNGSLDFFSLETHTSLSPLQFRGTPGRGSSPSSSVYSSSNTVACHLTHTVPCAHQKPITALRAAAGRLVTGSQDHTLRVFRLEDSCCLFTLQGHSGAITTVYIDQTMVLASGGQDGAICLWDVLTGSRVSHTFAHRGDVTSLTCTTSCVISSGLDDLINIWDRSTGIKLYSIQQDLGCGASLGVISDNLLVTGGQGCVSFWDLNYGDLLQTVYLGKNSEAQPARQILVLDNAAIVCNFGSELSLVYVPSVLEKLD

The target of a further assay is T2, Vc-Sac1 (human) (UniProt Q9NTJ5).
T2 sequence: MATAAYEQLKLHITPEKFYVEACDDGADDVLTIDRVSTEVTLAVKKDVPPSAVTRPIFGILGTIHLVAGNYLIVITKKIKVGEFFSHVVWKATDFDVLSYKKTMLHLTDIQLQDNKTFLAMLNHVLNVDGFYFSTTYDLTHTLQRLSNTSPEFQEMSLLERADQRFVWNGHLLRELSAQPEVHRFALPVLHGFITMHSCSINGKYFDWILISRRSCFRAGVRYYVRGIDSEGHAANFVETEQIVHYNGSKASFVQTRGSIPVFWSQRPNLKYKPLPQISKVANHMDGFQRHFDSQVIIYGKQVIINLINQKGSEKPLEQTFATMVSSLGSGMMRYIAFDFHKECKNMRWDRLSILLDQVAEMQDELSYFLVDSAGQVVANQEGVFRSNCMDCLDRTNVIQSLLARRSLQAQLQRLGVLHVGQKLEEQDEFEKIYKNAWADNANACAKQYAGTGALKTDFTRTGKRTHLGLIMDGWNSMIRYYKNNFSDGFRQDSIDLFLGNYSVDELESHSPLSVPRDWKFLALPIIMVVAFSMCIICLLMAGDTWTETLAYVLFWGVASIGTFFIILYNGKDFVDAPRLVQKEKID

Another assay deals with T3, Vc-VAP-A (human) (UniProt Q9P0L0).
T3 sequence: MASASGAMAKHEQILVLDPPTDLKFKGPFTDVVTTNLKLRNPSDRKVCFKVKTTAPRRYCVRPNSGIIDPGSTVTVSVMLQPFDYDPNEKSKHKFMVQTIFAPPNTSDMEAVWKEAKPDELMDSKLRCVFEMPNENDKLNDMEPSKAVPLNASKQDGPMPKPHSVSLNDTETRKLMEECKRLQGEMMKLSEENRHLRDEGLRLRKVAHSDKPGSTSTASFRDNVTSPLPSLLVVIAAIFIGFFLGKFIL

B1: Vc-Sac1 (protein, UniProt Q9NTJ5 1-587)
chain: T2 sequence
With B1, the binding entry with Vn-SCAP (hamster) is “binds”.

B2: Vn-OSBP (protein, UniProt P16258 1-809)
chain: MAATELRGVVGPGPAAIAAPGGGGAGPPVVGGGGGGRGDAGPGSGAASGTVAAAAAGGQGPGAGGVAAAAGPAPTPPAGGSGSSGTGGSGSAREGWLFKWTNYIKGYQRRWFVLSNGLLSYYRSKAEMRHTCRGTINLATANITVEDSCNFIISNGGAQTYHLKASSEVERQRWVTALELAKAKAVKMLAESDESGDEESVSQTDKTELQNTLRTLSSKVEDLSTCNDLIAKHGTALQRSLSELESLKLPAESNEKIKQVNERATLFRITSNAMINACRDFLVLAQTHSKKWQKSLQYERDQRIRLEETLEQLAKQHNHLERAFRGATVLPAHTSGSAGSGKDQCCSGKGDMSDEDDENEFFDAPEIITMPENLGHKRTGSNISGASSDISLDEQYKHQLEETKKEKRTRIPYKPNYSLNLWSIMKNCIGKELSKIPMPVNFNEPLSMLQRLTEDLEYHELLDRAAKCENSLEQLCYVAAFTVSSYSTTVFRTSKPFNPLLGETFELDRLEENGYRSLCEQVSHHPPAAAHHAESKNGWTLRQEIKITSKFRGKYLSIMPLGTIHCIFHATGHHYTWKKVTTTVHNIIVGKLWIDQSGEIDIVNHKTGDKCNLKFVPYSYFSRDVARKVTGEVTDPSGKVHFALLGTWDEKMDCFKVQPVSGENGGDARQRGHEAEESRVMLWKRNPLPKNAENMYYFSELALTLNAWEGGTAPTDSRLRPDQRLMENGRWDEANAEKQRLEEKQRLSRKKREAEAMKATEDGTPYDPYKALWFERKKDPVTKELTHIYRGEYWECKEKQDWNSCPDIF
Consider B2, for which the binding result in the assay with Vc-Sac1 (human) and in the assay with Vc-VAP-A (human) was “binds” in each case.
